In patent US20240117043A1:
These are yes or no findings as the source states them, for the method shown. Some binding calls cover weakened binding; strength is not graded here.

By UniProt entry, the sequences of proteins in these tests, tags left out. Residues count along the entry.
UniProt Q495A1, residues 22-141: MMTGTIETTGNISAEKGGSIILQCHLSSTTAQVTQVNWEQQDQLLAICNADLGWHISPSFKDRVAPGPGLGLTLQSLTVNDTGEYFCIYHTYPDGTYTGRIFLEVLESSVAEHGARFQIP

Molecular target: recombinant human TIGIT (His Tag) (human) (UniProt Q495A1)
Assay: ELISA, plate coated with recombinant human TIGIT (His Tag); hu20 mAb is the reference

binding: binds
B1: hu20 (a recombinant humanized anti-TIGIT monoclonal antibody) (antibody, V domains shown, not shown: a dimerising Fc or GST)
VH: QVQLVQSGAEVKKPGASVKVSCKTSGYAFTEYTMHWVRQAPGKGLEWMGGINPNTGGTTYNQKFQGRVTLTVDKSSSTAYMELSSLRSEDTVVYYCAKLLRLMYYFDYWGQGTLVTVSS
VL: DIQMTQSPSSLSASVGDRVTITCQASQDVRTAVAWYQQKPGKAPKLLIYSASYRYTGVPSRFSGSGSGTDFTFTISSLQPEDIATYYCHQHYITPWTFGGGTKVEIKR
